The text below walks through data of PMC10761746.

Chains of the proteins cited; added tags and fusions are not shown.
UniProt P0A7Z7: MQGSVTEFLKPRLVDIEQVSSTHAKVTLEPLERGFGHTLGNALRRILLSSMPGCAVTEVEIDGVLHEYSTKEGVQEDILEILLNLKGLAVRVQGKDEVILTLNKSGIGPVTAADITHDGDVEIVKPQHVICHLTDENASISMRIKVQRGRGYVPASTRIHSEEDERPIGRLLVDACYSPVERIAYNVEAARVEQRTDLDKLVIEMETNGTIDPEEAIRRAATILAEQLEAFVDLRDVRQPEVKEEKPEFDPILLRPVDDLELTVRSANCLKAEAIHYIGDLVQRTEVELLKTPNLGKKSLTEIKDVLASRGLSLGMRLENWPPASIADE
UniProt P69066: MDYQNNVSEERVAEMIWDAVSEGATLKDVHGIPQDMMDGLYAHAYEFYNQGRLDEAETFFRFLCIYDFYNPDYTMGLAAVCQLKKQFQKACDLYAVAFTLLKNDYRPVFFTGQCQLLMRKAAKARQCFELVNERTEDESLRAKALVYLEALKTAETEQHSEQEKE

The target of assay [1] is LexA_(DBDmut)-RpoA (UniProt P0A7Z7). As to the kind of experiment: two-hybrid.
For assay [2], the target named is His6-RpoA expressed from pET28-RpoA in S. Typhimurium invF::3xFLAG (UniProt P0A7Z7). Description: pull-down.
Assay [3] has as its target His6-RpoA (purified) (UniProt P0A7Z7). As to the kind of experiment: pull-down; only the target purified.

Results are given in words; binding and its absence hold for the method and conditions named. For part of these data: Binding seen in cells or lysates may run through a third protein. Some binding calls cover weakened binding; strength is not graded here.

As for “LexA_(DBDwt)-SicA (from UniProt P69066 1-165)”, in assay [1], the binding result is reported as “binds”.

As to “SicA (from the extract) (from UniProt P69066 1-165)”, the binding entry in assay [2] is “binds”.

Regarding SicA-FLAG (from UniProt P69066 1-165), the binding result in assay [3] is reported as “binds”.
